These results are taken from publication PMC7730289.

By UniProt entry, the sequences of proteins in these tests, tags left out. Residues count along the entry.
UniProt P08962, 103-203: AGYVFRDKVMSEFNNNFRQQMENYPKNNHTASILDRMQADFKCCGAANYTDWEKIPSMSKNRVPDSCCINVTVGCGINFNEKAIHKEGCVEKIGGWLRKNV

In the series the target is CD63 large extracellular domain, recombinant (Homo sapiens) (UniProt P08962). Description: ELISA. The note with it: 10 min 0.5 M NaCl after binding (Fig S2 legend prints 0.5 mM), PBS pH 7.4, 2.0 mM MgCl2, 0.02% Tween 20, 100 ug/mL salmon sperm DNA, ELISA 0.5 h, cells at RT 1 h (Methods) or 37 C 30 min (Results), commercial protein, residues 103-203, protein details: C-terminal His, single-stranded DNA. A general note: An ELISA detects its analyte on a solid surface through an enzyme-linked reagent.

Construct, isoform or probe ends are uncertain for at least one entry. The comparison behind a weaker result is the experiment's own reference, which may not be listed here.

On to “TAACACGACAGACGTTCGGAGGTCGAACCCTGACAGCGTGGGC [CD63-1]”, for which the binding result (label: 5' or 3' biotin (ELISA)) is “binds more weakly”.

“TAACCACCCCACCTCGCTCCCGTGACACTAATGCTAATTCCAA [CD63-2]”: under “label: biotin (ELISA)”, the binding result is listed as “binds more weakly”.
